Results deposited as PubChem BioAssay AID602196 (INSERM, 2012).
Test: 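Knock-downs that protect lung cancer cells from cisplatin or sensitise them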. Cell system: human A549 lung cancer cells. Reagent: siRNA pair against human genes. Timing: 48 h transfection before cisplatin; time from cisplatin to read-out not stated. Challenge: cisplatin at a dose killing half of control-siRNA cells; exact dose and duration not given. Read-out: 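Shift in cisplatin death relative to control siRNA, from -50 (all cells die) to +50 (no cells die); siRNAs harmful on their own scored 0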. Scale: two-siRNA summed score (-2 to +2): higher = both siRNAs protect from cisplatin killing; -2 means both sensitise; mean protection from cisplatin (shift in death) and protection from cisplatin (shift in death), siRNA C: higher = protection from cisplatin killing. Active means: 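Each siRNA scores 0 if harmful alone by LDH or WST-1, otherwise +1 if it reduces and -1 if it increases cisplatin killing; a gene is active when both siRNAs agree (sum +2 or -2)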. Meaning of the calls: active = both siRNAs shift cisplatin killing the same way; inactive = no consistent shift, or siRNA harmful alone.
This is a random part of about 23,000 reagents. 455 of them (2%) count as active. 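Active includes both protection and sensitisation; some change values fall well beyond the stated -50 to +50 range.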 Reagents against one gene are numbered here. Further read-outs or replicates are left out here. Not stated in the record: the amount of reagent.

gene | reagent | two-siRNA summed score (-2 to +2) | mean protection from cisplatin (shift in death) (%) | protection from cisplatin (shift in death), siRNA C (%) | call
BCL11A | 1 | 0 | -1.4 | -8.8 | inactive
IPPK | 1 | 0 | 3.9 | -6.9 | inactive
LOC440507 | 1 | 0 | 1.5 | -8.5 | inactive
AUNIP | 1 | -1 | -10.8 | -16.1 | inactive
LOC402230 | 1 | 0 | 7.1 | 8.7 | inactive
NES | 1 | 0 | 5.1 | -4.2 | inactive
OR7A5 | 1 | 0 | 1.5 | -0.6 | inactive
LOC158825 | 1 | 0 | 3.7 | -1.4 | inactive
PLXDC1 | 1 | -1 | -17.1 | -20.8 | inactive
FENDRR | 1 | 0 | 3.4 | 6.9 | inactive
ZNF519 | 1 | 0 | 1.5 | 0.9 | inactive
POLR2H | 1 | 0 | -7 | 2.4 | inactive
CATSPERG | 1 | 0 | -1.7 | 7.1 | inactive
LINC00944 | 1 | 0 | 16.7 | 21.5 | inactive
PRPH2 | 1 | 0 | -8 | -6.6 | inactive
CRACR2A | 1 | 0 | 3 | -1.2 | inactive
BPIFB2 | 1 | 0 | 21.8 | 6.1 | inactive
ART5 | 1 | 1 | 11.2 | 16.8 | inactive
LOC442532 | 1 | 0 | 4.1 | 0.6 | inactive
PPP1R36 | 1 | 0 | -1.5 | -0.6 | inactive
MIA2 | 1 | 0 | 3.1 | -2.7 | inactive
MIA2 | 2 | 1 | 6.2 | -3.9 | inactive
CCDC120 | 1 | 0 | -9.3 | -9.3 | inactive
MATN4 | 1 | 0 | 2.5 | 1 | inactive
LOC441740 | 1 | 2 | 21.1 | 13.5 | active
MED17 | 1 | -1 | -15.6 | -8.6 | inactive
MYL6 | 1 | 0 | -9.5 | -7.9 | inactive
MINPP1 | 1 | 1 | 11 | 11.8 | inactive
CCDC81 | 1 | 0 | 1.3 | -0.3 | inactive
COA7 | 1 | 0 | -1.3 | -6 | inactive
MT1DP | 1 | 0 | 10.1 | 9.8 | inactive
MT1DP | 2 | 0 | 20.3 | 17.5 | inactive
FOXF2 | 1 | -2 | -11.4 | -12.7 | active
IL13RA1 | 1 | 0 | -15 | -17.9 | inactive
MCM8 | 1 | 0 | 7.4 | 1.2 | inactive
KIAA1889 | 1 | 0 | 12.5 | 15 | inactive
C1orf35 | 1 | 0 | 6.1 | 7.3 | inactive
FDFT1 | 1 | 0 | 5.7 | 2 | inactive
PPP2R5A | 1 | 0 | -6 | -9.3 | inactive
RPL36A | 1 | 0 | -1.6 | -0.4 | inactive
WDR11 | 1 | 0 | 2.5 | 8.8 | inactive
ASPA | 1 | 1 | 13.8 | 19.1 | inactive
WDR45 | 1 | 0 | 14.2 | 10.7 | inactive
CDC73 | 1 | 0 | 1.1 | 6.4 | inactive
DDX59 | 1 | 0 | 7.4 | -0.6 | inactive
OR4C12 | 1 | 0 | -1 | -6.1 | inactive
OR52A4P | 1 | 0 | 1.9 | 9.7 | inactive
LOC400688 | 1 | 0 | 8.8 | 8.8 | inactive
ZNF155 | 1 | 0 | -5.2 | -5 | inactive
LOC440716 (retired record) | 1 | 0 | 9.1 | 8.1 | inactive
P3H4 | 1 | 0 | 12.4 | 15.8 | inactive
LOC391016 | 1 | 1 | 7.4 | 13.6 | inactive
FBXO24 | 1 | -1 | -27.9 | -33.1 | inactive
LOC389102 | 1 | -1 | -7.7 | 6 | inactive
HTR3E | 1 | -1 | -2.5 | 21.4 | inactive
EN2 | 1 | 1 | 12.4 | 20.9 | inactive
LOC389308 | 1 | 0 | 10.1 | 16.8 | inactive

As entered above.
For “protection from cisplatin (shift in death), siRNA C (%)”, FDFT1 has 2
For “mean protection from cisplatin (shift in death) (%)”, DDX59 reads 7.4
Under “two-siRNA summed score (-2 to +2)”, CATSPERG shows 0
